Results deposited as PubChem BioAssay AID1159578 (Peter MacCallum Cancer Centre, 2015)
Test: 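Knock-downs that alter how fast lymphatic endothelial cells migrate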 (primary screen). System: human lymphatic endothelial cells. Reagent: siRNA pool against human genes, 40 nM. Timing: 48 h after transfection. Read-out: 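Cells stained with dye and imaged after a scratch; covered wound area and nuclei counted, duplicates averaged, migration set against mock wells and turned into a robust z-score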. Scale: migration robust z-score: higher = faster migration into the scratch; migration relative to mock: higher = more scratch area covered than mock; nuclei per well: higher = more cells in the well. Call rule: 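Pools averaging fewer than 3300 nuclei are never called; remaining pools count as changed when migration robust z lies outside -2 to 2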. Meaning of the calls: active = migration changed; inactive = no migration change, or too few cells.
Here is an unselected part of about 18,000 deposited reagents. Over the whole deposit, about 1,030 (5.7%) were called active. 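Inactive calls also include pools with fewer than 3300 nuclei, whose migration was not assessed.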 Raw values are not corrected between plates.

| gene | migration robust z-score | migration class with cell-count check | migration relative to mock | nuclei per well, duplicate mean | Call |
| --- | --- | --- | --- | --- | --- |
| C12orf71 (chromosome 12 open reading frame 71) | 1 | migration z between -2 and 2; enough cells | 1.15 | 5698 | inactive |
| LIMD2 (LIM domain containing 2) | -0.29 | migration z between -2 and 2; enough cells | 0.81 | 5472 | inactive |
| FETUB (fetuin B) | 1.37 | migration z between -2 and 2; enough cells | 1.24 | 6042 | inactive |
| OR1N1 (olfactory receptor family 1 subfamily N member 1) | -0.13 | migration z between -2 and 2; enough cells | 0.85 | 4824 | inactive |
| CHID1 (chitinase domain containing 1) | -1.43 | migration z between -2 and 2; enough cells | 0.53 | 5790 | inactive |
| RAB17 (RAB17, member RAS oncogene family) | 0.42 | migration z between -2 and 2; enough cells | 0.88 | 5017 | inactive |
| AHNAK (AHNAK nucleoprotein) | -1.87 | migration z between -2 and 2; enough cells | 0.4 | 5569 | inactive |
| AGRN (agrin) | 0.2 | migration z between -2 and 2; enough cells | 0.94 | 6154 | inactive |
| ZNF521 (zinc finger protein 521) | 0.56 | migration z between -2 and 2; enough cells | 1.03 | 5136 | inactive |
| WDTC1 (WD and tetratricopeptide repeats 1) | -0.16 | migration z between -2 and 2; enough cells | 0.84 | 6890 | inactive |
| EIF6 (eukaryotic translation initiation factor 6) | 0.08 | migration z between -2 and 2; enough cells | 0.82 | 5067 | inactive |
| ZNF84 (zinc finger protein 84) | 1.58 | migration z between -2 and 2; enough cells | 1.29 | 6214 | inactive |
| E2F1 (E2F transcription factor 1) | -0.13 | migration z between -2 and 2; enough cells | 0.78 | 6220 | inactive |
| PRKCE (protein kinase C epsilon) | -2.02 | migration z below -2; enough cells | 0.42 | 3676 | active |
| TCP11 (t-complex 11) | -0.26 | migration z between -2 and 2; enough cells | 0.82 | 6066 | inactive |
| PPDPFL | 0.48 | migration z between -2 and 2; enough cells | 1.01 | 6652 | inactive |
| EIF5 (eukaryotic translation initiation factor 5) | -0.18 | migration z between -2 and 2; enough cells | 0.77 | 5191 | inactive |
| CAPN15 (calpain 15) | 0.24 | migration z between -2 and 2; enough cells | 0.85 | 5360 | inactive |
| SALL3 (spalt like transcription factor 3) | -0.88 | migration z between -2 and 2; enough cells | 0.66 | 4742 | inactive |
| ZRANB2 (zinc finger RANBP2-type containing 2) | 1.46 | migration z between -2 and 2; enough cells | 1.26 | 7582 | inactive |
| GPR4 (G protein-coupled receptor 4) | 0.83 | migration z between -2 and 2; enough cells | 0.96 | 4906 | inactive |
| VANGL1 (VANGL planar cell polarity protein 1) | 0.97 | migration z between -2 and 2; enough cells | 1.14 | 7436 | inactive |
| PDE6G (phosphodiesterase 6G) | 0.42 | migration z between -2 and 2; enough cells | 0.88 | 4374 | inactive |
| KCMF1 (potassium channel modulatory factor 1) | 0.9 | migration z between -2 and 2; enough cells | 1.12 | 6374 | inactive |
| APOLD1 (apolipoprotein L domain containing 1) | -0.75 | migration z between -2 and 2; enough cells | 0.69 | 4526 | inactive |
| CAMK2N1 (calcium/calmodulin dependent protein kinase II inhibitor 1) | 0.88 | migration z between -2 and 2; enough cells | 0.98 | 5620 | inactive |
| H2BC14 (H2B clustered histone 14) | 0.88 | migration z between -2 and 2; enough cells | 1.12 | 6030 | inactive |
| GOT1 (glutamic-oxaloacetic transaminase 1) | 0.42 | migration z between -2 and 2; enough cells | 0.88 | 6010 | inactive |
| SLC50A1 | -2.29 | migration z below -2; enough cells | 0.29 | 6393 | active |
| OR52R1 (olfactory receptor family 52 subfamily R member 1) | 1.54 | migration z between -2 and 2; enough cells | 1.29 | 5582 | inactive |
| SPTBN5 (spectrin beta, non-erythrocytic 5) | 0.74 | migration z between -2 and 2; enough cells | 1.08 | 7106 | inactive |
| PHF1 (PHD finger protein 1) | 1.14 | migration z between -2 and 2; enough cells | 1.02 | 5382 | inactive |
| CFAP418 (cilia and flagella associated protein 418) | 0.52 | migration z between -2 and 2; enough cells | 1.02 | 3775 | inactive |
| TNFSF12 (TNF superfamily member 12) | -0.19 | migration z between -2 and 2; enough cells | 0.84 | 7052 | inactive |
| DCTD (dCMP deaminase) | 0.49 | migration z between -2 and 2; enough cells | 0.9 | 6211 | inactive |
| RRAS (RAS related) | -0.28 | migration z between -2 and 2; enough cells | 0.75 | 5846 | inactive |
| OR2H1 (olfactory receptor family 2 subfamily H member 1) | -0.6 | migration z between -2 and 2; enough cells | 0.73 | 6671 | inactive |
| DNAJB11 (DnaJ heat shock protein family (Hsp40) member B11) | -0.9 | migration z between -2 and 2; enough cells | 0.65 | 6241 | inactive |
| MEPCE (methylphosphate capping enzyme) | -0.66 | migration z between -2 and 2; enough cells | 0.72 | 4914 | inactive |

3 entries already listed, arranged by “nuclei per well, duplicate mean”, highest first.
| gene | migration robust z-score | migration class with cell-count check | migration relative to mock | nuclei per well, duplicate mean | Call |
| --- | --- | --- | --- | --- | --- |
| OR2H1 (olfactory receptor family 2 subfamily H member 1) | -0.6 | migration z between -2 and 2; enough cells | 0.73 | 6671 | inactive |
| DNAJB11 (DnaJ heat shock protein family (Hsp40) member B11) | -0.9 | migration z between -2 and 2; enough cells | 0.65 | 6241 | inactive |
| MEPCE (methylphosphate capping enzyme) | -0.66 | migration z between -2 and 2; enough cells | 0.72 | 4914 | inactive |
